Reference: patent US20150313927A1, “AN EDIBLE COMPOSITION COMPRISING RESVERATROL AND FLAVONOID MONOGLUCOSIDE” (Conopco, Inc., d/b/a UNILEVER, priority 2012, published 2015)
For at least one compound, name, drawing or mass did not settle the structure.

How the values were obtained:
[1] = tested on: SGLT1; assay: Glucose transport inhibitor cell screening assay, 5 mM D-glucose for 15 minutes; conditions: for Class (assigned class of transporter inhibited): based on inhibition at 5 mM and 25 mM D-glucose
[2] = tested on: differentiated Caco-2 monolayers; assay: Glucose transport cell model, total cumulative glucose transport (synergy); format: cell-based, Human; conditions: 300 μM active for first 15 minutes in 5 mM D-glucose, then no active (Pz NC)
[3] = molecular target: T1, GLUT2 (Homo sapiens, UniProt P11168); assay: Glucose transport inhibitor cell screening assay, 25 mM D-glucose for 30 minutes; conditions: Caco-2 cell model
T1 sequence (P11168 1-524): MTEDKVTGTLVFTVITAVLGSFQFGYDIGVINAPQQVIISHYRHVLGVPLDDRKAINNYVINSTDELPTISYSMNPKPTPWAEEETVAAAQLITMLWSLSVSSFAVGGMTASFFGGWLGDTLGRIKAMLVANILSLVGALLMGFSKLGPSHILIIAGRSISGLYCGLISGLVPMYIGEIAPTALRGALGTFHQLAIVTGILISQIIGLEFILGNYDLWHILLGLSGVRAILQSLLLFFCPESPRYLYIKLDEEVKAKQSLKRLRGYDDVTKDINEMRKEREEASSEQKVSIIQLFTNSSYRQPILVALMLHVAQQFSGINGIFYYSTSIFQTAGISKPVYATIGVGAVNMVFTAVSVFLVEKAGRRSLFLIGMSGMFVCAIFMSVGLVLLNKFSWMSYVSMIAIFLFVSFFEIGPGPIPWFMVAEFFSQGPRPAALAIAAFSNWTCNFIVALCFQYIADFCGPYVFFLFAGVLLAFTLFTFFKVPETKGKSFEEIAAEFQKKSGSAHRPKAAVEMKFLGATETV

| SMILES | Class (assigned class of transporter inhibited) [1] | total Cumulative Glucose Transport (tCGT), active added from the beginning [2] | GLUT2 inhibition (in words) [3] | SGLT1 inhibitory activity (in words) ([1]; Caco-2 cell model, 5 mM D-glucose) |
| --- | --- | --- | --- | --- |
| Oc1ccc(-c2[o+]c3cc(O)cc(O)c3cc2O)cc1 [Pelargonidin] | None | – | – | – |
| O=C(CCc1ccc(O)cc1)c1c(O)cc(O)cc1O[C@@H]1O[C@H](CO)[C@@H](O)[C@H](O)[C@H]1O [Phloridzin, reference compound] | – | significant reduction | – | – |
| COc1cc(/C=C/c2ccc(O)cc2)cc(OC)c1 [Pterostilbene] | None | – | neither an SGLT1 nor a GLUT2 inhibitor | neither an SGLT1 nor a GLUT2 inhibitor |
